The values that follow come from PubChem BioAssay AID256 (DTP/NCI, 2004).

The list does not hold the whole screen: it gathers tests that were run many times, whatever their T/C, doses with no T/C, and many T/C values between a quarter and a half above the control. Further doses and runs are listed elsewhere. T/C: endpoint of the treated group in % of that of the vehicle group. Some doses have a count of surviving animals in place of a T/C: the source files T/C as zero there, which appears to mark a toxic dose or a test without result, not a measured value. Some survivor counts are full or nearly so, which does not show that the dose was tolerated: the source hardly ever lists a survival T/C far under the control, and the zero likely stands for such cases as well. Survivors were counted at the toxicity check, usually on the fifth day, unless a day is given; later deaths do not show. Schedule codes are those of the source, taken here to give the interval after Q, in days (D) or hours (H), and the number of doses after X. Where survival is the endpoint, the PubChem record calls one and a half times the control and up active, and a quarter to a half above the control has no call in these data; cut-offs in other NCI protocols can differ. Some T/C values carry the count of animals alive at the toxicity check (mostly the fifth day); without a count, all were alive then.

The test system of the test is CD2F1 mice, L1210 leukemia ip, survival T/C. The test can be described thus: NCI In Vivo Anticancer Drug Screen. Data for tumor model L1210 Leukemia (intraperitoneal) in CD2F1 (CDF1) mice. As to conditions: higher T/C = longer survival. The procedure, abridged:
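Mice carrying a transplanted tumor received test compound or vehicle alone. The value is the measurement in the treated group divided by that in the vehicle-treated control group.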

Setting [1] is: T/C endpoint: mean survival time, dose: 200.0 mg/kg/injection, schedule: Q04DX003 (ip), vehicle: saline with Tween-80.
Setting [2] is: T/C endpoint: mean survival time, dose: 400.0 mg/kg/injection, schedule: Q04DX003 (ip), vehicle: saline with Tween-80.
Setting [3] is: T/C endpoint: mean survival time, dose: 300.0 mg/kg/injection, schedule: Q01DX001 (ip), vehicle: saline.
[4] abbreviates: T/C endpoint: mean survival time, dose: 200.0 mg/kg/injection, schedule: Q01DX009 (ip), vehicle: saline with Tween-80.
[5] abbreviates: T/C endpoint: mean survival time, dose: 400.0 mg/kg/injection, schedule: Q01DX009 (ip), vehicle: saline with Tween-80.
Where [6] appears, read: T/C endpoint: mean survival time, dose: 100.0 mg/kg/injection, schedule: Q01DX001 (ip), vehicle: saline with Tween-80.

As for `CC(C)(C)N[P+](C)(NC(C)(C)C)c1ccccc1`, the survivor count (T/C endpoint: mean survival time, dose: 25.0 mg/kg/injection, schedule: Q04DX003 (ip), vehicle: saline) is reported as 2 of 6; the survivor count (T/C endpoint: mean survival time, dose: 50.0 mg/kg/injection, schedule: Q04DX003 (ip), vehicle: saline) is given as 0 of 6; the survivor count (T/C endpoint: mean survival time, dose: 100.0 mg/kg/injection, schedule: Q04DX003 (ip), vehicle: saline with Tween-80) is 0 of 6; the survivor count under setting [1] was 0 of 6; the survivor count under setting [2] is 0 of 6.
For the compound `COc1nc(N)nc2c1nnn2C1OC(CO)C(O)C1O` (stereo unspecified), the T/C runs as follows: (T/C endpoint: mean survival time, dose: 12.5 mg/kg/injection, schedule: Q01DX009 (ip), vehicle: Klucel (hydroxypropylcellulose) (HPC)) 141 % of control; (T/C endpoint: mean survival time, dose: 25.0 mg/kg/injection, schedule: Q01DX009 (ip), vehicle: Klucel (hydroxypropylcellulose) (HPC)) 141 % of control.
Turning to `COC(=O)CC1OCC=C2CN3CCC45C6=CC(=O)C(=O)C([N+](=O)[O-])=C6NC4C1C2CC35` (stereo unspecified), the survivor count runs as follows: (T/C endpoint: mean survival time, dose: 75.0 mg/kg/injection, schedule: Q01DX001 (ip), vehicle: saline) 0 of 6; (T/C endpoint: mean survival time, dose: 150.0 mg/kg/injection, schedule: Q01DX001 (ip), vehicle: saline) 0 of 6; under setting [3], 0 of 6.
On to `O=C(COc1ccccc1)N/N=C/c1ccccc1O`, for which the survivor count by setting is: under setting [4], 2 of 6; under setting [5], 2 of 6.
Consider `O=C1c2ccccc2C(Cl)(c2ccc(Cl)cc2)c2ccc(Cl)cc21` (stereo unspecified), for which the survivor count is reported as 4 of 6 (T/C endpoint: median survival time, dose: 200.0 mg/kg/injection, schedule: Q01DX009 (ip), vehicle: saline with Tween-80) and 2 of 6 (T/C endpoint: median survival time, dose: 400.0 mg/kg/injection, schedule: Q01DX009 (ip), vehicle: saline with Tween-80).
Turning to `NN(C(=O)c1ccccc1)c1ccccc1`, the survivor count runs as follows: under setting [4], 1 of 6; under setting [5], 0 of 6.
On to `CS(=O)(=O)c1cc(C(F)(F)F)cc([N+](=O)[O-])c1Cl`, for which the survivor count runs as follows: under setting [4], 3 of 6; under setting [2], 4 of 6.
`COc1ccc(OC)c(NC(=O)NNC(=O)c2ccc(Cl)cc2)c1`: the survivor count by setting is: under setting [4], 5 of 6; under setting [5], 5 of 6.
Regarding `Cc1ccnc(NC2=CC(=O)C(=O)c3ccccc32)c1`, the survivor count (T/C endpoint: mean survival time, dose: 400.0 mg/kg/injection, schedule: Q01DX009 (ip), vehicle: saline sonified) is 3 of 6.
Take `CCOC(=O)c1ccc(NC(=O)Nc2ccc(N(C)C(C)=O)cc2)cc1`: the survivor count is recorded as 6 of 6 under setting [1] and 6 of 6 under setting [2].
As for `N#C[Se]C[Se]C#N`, the survivor count is recorded as 2 of 6 (T/C endpoint: mean survival time, dose: 12.5 mg/kg/injection, schedule: Q01DX001 (ip), vehicle: saline with Tween-80); 0 of 6 (T/C endpoint: mean survival time, dose: 25.0 mg/kg/injection, schedule: Q01DX001 (ip), vehicle: saline with Tween-80); 0 of 6 under setting [6]; 0 of 6 (T/C endpoint: mean survival time, dose: 200.0 mg/kg/injection, schedule: Q01DX001 (ip), vehicle: saline with Tween-80); 0 of 6 (T/C endpoint: mean survival time, dose: 400.0 mg/kg/injection, schedule: Q01DX001 (ip), vehicle: saline with Tween-80).
With `COc1ccc2c(c1O)CNCC2c1ccc(O)cc1O` (stereo unspecified), the survivor count under setting [3] was 0 of 6.
Consider `CCOC(=O)N1Cc2cc3ccccc3nc2C1`, for which, under “T/C endpoint: mean survival time, dose: 300.0 mg/kg/injection, schedule: Q01DX009 (ip), vehicle: saline with Tween-80”, the survivor count was 2 of 6.
Consider `CN(C)C(=S)NNC(=O)c1ccc(Cl)cc1`, for which the survivor count by setting is: (T/C endpoint: mean survival time, dose: 50.0 mg/kg/injection, schedule: Q01DX001 (ip), vehicle: saline with Tween-80) 2 of 6; under setting [6], 0 of 6.
For the compound `NCCCCS(=O)(=O)Nc1ccc(Nc2c3ccccc3nc3cc([N+](=O)[O-])ccc23)cc1`, the T/C by setting is: (T/C endpoint: mean survival time, dose: 25.0 mg/kg/injection, schedule: Q01DX009 (ip), vehicle: saline with Tween-80) 146 % of control; (T/C endpoint: mean survival time, dose: 100.0 mg/kg/injection, schedule: Q04DX003 (ip), vehicle: saline) 130 % of control; under setting [1], 138 % of control [5 of 6 alive]; (T/C endpoint: mean survival time, dose: 200.0 mg/kg/injection, schedule: Q04DX003 (ip), vehicle: saline) 133 % of control.
Regarding `CCN(CC)CCSCCSCCN(CC)CC`, the survivor count (T/C endpoint: mean survival time, dose: 400.0 mg/kg/injection, schedule: Q01DX001 (ip), vehicle: saline) is listed as 0 of 6.
As to `CCn1c(C)nc2cc(C(N)=O)ccc21`, under setting [5], the survivor count is 0 of 6.
In the case of `C=C1C(=O)OCC1(C(=O)OCC)C(=O)OCC`, the survivor count (T/C endpoint: mean survival time, dose: 80.0 mg/kg/injection, schedule: Q01DX001 (ip), vehicle: saline) is listed as 2 of 6.
Turning to `CC1C(=O)OC2C1CCC1(C)C3OC3C(=O)C3(C)OC231` (stereo unspecified), the survivor count (T/C endpoint: mean survival time, dose: 200.0 mg/kg/injection, schedule: Q04DX002 (ip), vehicle: saline with Tween-80) is reported as 2 of 3 and the survivor count (T/C endpoint: mean survival time, dose: 400.0 mg/kg/injection, schedule: Q04DX002 (ip), vehicle: saline with Tween-80) was 0 of 3.
